Measured values published in PubChem BioAssay AID1671190 (National Center for Advancing Translational Sciences (NCATS), 2021).
Among all 580,000 compounds or so, about 6,100 (1.1%) were called active. Inconclusive results, whose numbers are uncertain, are shown with a selection of clear calls. The call rests on the fitted dose curve; in most records, active means well fitted inhibition curve with a large enough effect; inconclusive means small, poorly fitted or top-dose-only effect, or another doubt; inactive means no such curve, though single readings can be large or run the other way. Potencies beside an inconclusive call are fits to weak or partial responses and may not hold up.

By UniProt entry, the sequences of proteins in these tests, tags left out. Where a name states a change or a piece, a line headed by the entry shows the natural chain unless it says otherwise.
UniProt P18054: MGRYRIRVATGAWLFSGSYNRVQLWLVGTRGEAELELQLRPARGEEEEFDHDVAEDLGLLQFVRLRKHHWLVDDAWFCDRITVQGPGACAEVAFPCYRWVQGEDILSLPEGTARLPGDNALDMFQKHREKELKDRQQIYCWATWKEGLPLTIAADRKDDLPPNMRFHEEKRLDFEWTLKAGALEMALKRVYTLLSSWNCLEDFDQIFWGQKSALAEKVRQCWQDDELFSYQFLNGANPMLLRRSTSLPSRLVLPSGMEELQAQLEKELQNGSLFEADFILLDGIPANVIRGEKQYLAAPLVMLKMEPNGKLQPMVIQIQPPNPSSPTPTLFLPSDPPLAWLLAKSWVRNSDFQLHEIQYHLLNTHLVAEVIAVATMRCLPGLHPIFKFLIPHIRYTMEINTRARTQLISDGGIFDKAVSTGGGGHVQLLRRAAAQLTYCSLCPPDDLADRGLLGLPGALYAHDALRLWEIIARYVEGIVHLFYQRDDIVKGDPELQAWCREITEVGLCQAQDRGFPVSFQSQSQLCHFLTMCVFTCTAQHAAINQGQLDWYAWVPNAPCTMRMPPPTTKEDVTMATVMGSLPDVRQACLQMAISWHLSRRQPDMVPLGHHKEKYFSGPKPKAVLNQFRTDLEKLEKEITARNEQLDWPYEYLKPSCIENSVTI

Target: Polyunsaturated fatty acid lipoxygenase ALOX12 (Homo sapiens) (UniProt P18054)
Test: Primary qHTS assay for inhibitors of human arachidonate 12S-lipoxygenase (ALOX12): Round 2
Details: purified 12hLO, xylenol orange hydroperoxide absorbance; series mostly up to 108 µM
Summary of the method: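 Hydroperoxide product was detected by ferrous iron/xylenol orange as the 573 to 405 nm absorbance ratio. Arachidonic acid at 40 uM (final) was turned over for 30 min at room temperature by 150 nM human 12hLO, pH 7.0 Hepes buffer, after 15 min compound preincubation.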
Potency means the concentration at half of the fitted maximal effect.

Row | Structure (SMILES) | Potency
1 | O=C(O)CC(c1ccncc1)c1c[nH]c2ccccc12 (configuration not stated) | active: 3.55 µM
2 | COc1ccc(CNc2ncncc2-c2c(C)noc2C)c(OC)c1 | inconclusive: 44.7 µM [inhibitor, partial curve]
3 | O=C(Nc1ccccc1C(=O)NC(Cc1ccccc1)C(=O)O)c1ccco1 (configuration not stated) | inactive
4 | O=C(Cn1cc(SCc2ccc(Cl)cc2)c2ccccc21)N1CCOCC1 | inconclusive: 112 µM [inhibitor, partial curve, poor fit]
5 | CC(CCc1ccccc1)NCc1ccncc1 (configuration not stated) | inconclusive: 20 µM [inhibitor, partial curve, poor fit]
6 | Cc1ccc2c(c1)SC(C(=O)Nc1ccc(C)c(S(N)(=O)=O)c1)C2 (configuration not stated) | inconclusive: 50.1 µM [inhibitor, full curve, poor fit]
7 | CCn1c(-c2ccc(O)c(OC)c2)nc2c1c(=O)[nH]c(=O)n2Cc1ccccc1 | inconclusive: 44.7 µM [inhibitor, partial curve, poor fit]
8 | COc1ccccc1OCC(=O)Nc1cc(S(=O)(=O)N2CCCCC2)ccc1N1CCCCC1 | inconclusive: 44.7 µM [inhibitor, partial curve]
9 | CSc1nnc2c3cc(F)ccc3n(C)c2n1 | inconclusive: 35.5 µM [inhibitor, partial curve, poor fit]
10 | COc1ccc(S(=O)(=O)N(C)C[C@@H]2OCCCC[C@@H](C)Oc3ccc(NC(=O)NC(C)C)cc3C(=O)N([C@H](C)CO)C[C@@H]2C)cc1 | inconclusive: 100 µM [inhibitor, single point]
11 | S=c1[nH]c2cc(-c3ccccc3)ccc2s1 | inconclusive: 35.5 µM [inhibitor, partial curve, poor fit]
12 | COc1cc(CNCCC2CCOC(C)(C)C2)ccc1O (configuration not stated) | inconclusive: 50.1 µM [inhibitor, partial curve, poor fit]
13 | CC1CCc2c(sc(NC(=O)CC(C)(C)C)c2C#N)C1 (configuration not stated) | inconclusive: 50.1 µM [inhibitor, partial curve, poor fit]
14 | COc1ccccc1-c1[nH]nc2ncc(-c3ccc(C)cc3)nc12 | inconclusive: 100 µM [inhibitor, partial curve, poor fit]
15 | S=C1NC2(CCCCC2)NN1c1ccc(Cl)cc1 | inconclusive: 0.398 µM [inhibitor, full curve, poor fit]
16 | Cc1cc(C)n2nc(SCc3cccc(S(=O)(=O)N(C)C)c3)nc2n1 | inconclusive: 44.7 µM [inhibitor, partial curve, poor fit]
17 | CNC(=O)c1ccc(OCc2coc(-c3cccc(F)c3)n2)cc1 | inconclusive: 31.6 µM [inhibitor, single point]
18 | Cc1cc(Cl)ccc1NS(=O)(=O)c1c(C(=O)N2CCCCCC2)c(C)n(C)c1C | inactive
19 | Cc1ccccc1OCC(=O)NC(=S)Nc1ccc(N2CCCC2)cc1 | inconclusive: 89.1 µM [inhibitor, partial curve, poor fit]
20 | S=C(Nc1ccc(Br)cc1Cl)Nn1cnnc1 | inconclusive: 50.1 µM [inhibitor, single point]
21 | Cc1ncc([N+](=O)[O-])n1CCOC(=O)c1cc(Cl)cc(Cl)c1N | active: 31.6 µM

Some of the entries above, set out differently.
Row	Structure (SMILES)	Potency
15	S=C1NC2(CCCCC2)NN1c1ccc(Cl)cc1	inconclusive: 0.398 µM [inhibitor, full curve, poor fit]
19	Cc1ccccc1OCC(=O)NC(=S)Nc1ccc(N2CCCC2)cc1	inconclusive: 89.1 µM [inhibitor, partial curve, poor fit]

Additional results

Row | Structure (SMILES) | Potency
22 | S=C(NCCc1ccccc1)N1CCN(C(=S)NCCc2ccccc2)CC1 | inconclusive: 89.1 µM [inhibitor, single point]
23 | O=C(O)C(=O)Nc1cccc(C2=NN=N[N]2)c1 | inconclusive: 0.306 µM [inhibitor, full curve, poor fit]
24 | C/C(CS(=O)(=O)c1ccc(Cl)c(Cl)c1)=N/NC(N)=S | inconclusive: 44.7 µM [inhibitor, partial curve]
25 | Cc1ccccc1Cn1c(=O)c2c(nc3n2CCN3Cc2ccco2)n(C)c1=O | inactive
26 | Cc1cccc(N(C)S(=O)(=O)c2ccc3[nH]cc(C(=O)N4CCOCC4)c(=O)c3c2)c1 | inactive
27 | CCOc1ccc(C(C)NC(=O)CC2Sc3ccccc3NC2=O)cc1OCC (configuration not stated) | inactive
28 | C[C@H]1COC(=O)CCCC/C=C\C[C@H](CC(=O)N(CCO)Cc2ccccc2)C(=O)N1 | inconclusive: 100 µM [inhibitor, single point]
29 | O=C(NCc1ccncc1)c1ccc2c(c1)n(Cc1ccc(F)cc1)c(=O)c1ccnn12 | inactive
30 | O=C(CCl)N1c2ccccc2SCC1c1ccccc1 (configuration not stated) | active: 20 µM
31 | CCOC(=O)c1c(/N=C/C2C(=O)CCCC2=O)sc2c1CCCC2 | inactive
32 | Cc1ccc(-n2c(Cc3ccccc3)n[nH]c2=S)c(C)c1 | inconclusive: 44.7 µM [inhibitor, partial curve]
33 | Cc1ccc(S(=O)(=O)N2CCN(CC(=O)NC(C)c3cccs3)CC2)cc1 (configuration not stated) | active: 0.708 µM
34 | COc1ccc(C(=O)NCCNc2nc3cc(C)cc(C)c3cc2C#N)c(OC)c1 | inconclusive: 31.6 µM [inhibitor, partial curve, poor fit]
35 | O=c1c(N2CCN(c3ccc(F)cc3)CC2)csc2ccc(F)cc12 | inconclusive: 56.2 µM [inhibitor, partial curve, poor fit]
36 | Cc1ccc(SCC(=O)NC2(C#N)CCCC2)nc1 | inconclusive: 44.7 µM [inhibitor, partial curve, poor fit]
37 | COC(=O)C1=C(O)/C(=C\c2ccc(CNC(=O)C(=O)Nc3ccc(C)c(C)c3)o2)N=C1C | inconclusive: 5.01 µM [inhibitor, full curve, poor fit]
38 | O=C(c1ccc(Cl)cc1)N1CCOCC2(CN(Cc3ccccc3)C2)C1 | inactive
39 | COc1ccc(-c2nc(C)nc3c2CCN(C(=O)c2ccc(C)cc2)CC3)cc1 | inconclusive: 44.7 µM [inhibitor, partial curve, poor fit]
40 | O=C(O)CC1COCCN1C(=O)Cn1cnnn1 (configuration not stated) | inconclusive: 100 µM [inhibitor, partial curve, poor fit]
41 | CC1CCN(S(=O)(=O)c2ccc3nc(Nc4cccc(F)c4)ccc3c2)CC1 | inconclusive: 50.1 µM [inhibitor, partial curve, poor fit]
42 | O=C(Nc1ccc(-c2ccccc2)cc1)c1ccccc1 | inactive
